Source: US8586103B2, “Non-polymeric compositions for controlled drug delivery” (Foresee Pharmaceuticals, LLC, priority 2008, dated 2013)
Some entries share one result that the patent states for a list of compounds.

assay: In vitro release of octreotide from SAIB/NMP formulations; type: physicochemical; conditions: within 24 hours; PBS 7.4, 37° C.; SAIB/NMP formulation, about 6% octreotide
Protocol: (§1) In another embodiment, the release rate of the compositions of the present invention was determined in vitro. About 0.1 mL of each formulation was injected into 3 mL of releasing buffer (PBS 7.4, containing 0.1% sodium azide) in a 4 mL glass vial. The vials were incubated at 37° C. and sampled at various time points. At each time point, 2 mL of release medium was removed and replaced with 2 mL of fresh release medium. The collected samples were analyzed for bioactive substance concentration and integrity by HPLC using an YMC-Pack ODS-120A column or equivalent. Triplicate samples were used for each formulation.
An aliquot of the suspension was used for the in vitro release. About 0.1 mL of each formulation containing octreotide was injected into 3 mL of releasing buffer (PBS 7.4, containing 0.1% sodium azide) in a 4 mL glass vial. The vials were incubated at 37° C. and sampled at various time points. At each time point, 2 mL of release medium was removed and replaced with 2 mL of fresh release medium. The collected samples were analyzed for peptide concentration and integrity by HPLC using an YMC-Pack ODS-120A column. Triplicate samples were used for each formulation.

Compound	octreotide released
octreotide docusate [OCT-DSS]	Less than 10%
octreotide dodecyl sulfate [OCT-SDS]	Less than 10%

assay: In vitro release of leuprolide from SAIB/NMP formulations; type: physicochemical; conditions: within 24 hours; PBS 7.4, 37° C.; SAIB/NMP formulation, about 6% leuprolide
Protocol: as §1
Formulations were prepared by mixing leuprolide acetate (LA-Ac), leuprolide dodecyl sulfate (LA-SDS), leuprolide docusate (LA-DSS) and leuprolide oleate (LA-OL) complex powders with SAIB solution in NMP (90% w/w).
An aliquot of the suspension was used for the in vitro release. About 0.1 mL of each leuprolide formulation was injected into 3 mL of releasing buffer (PBS 7.4, containing 0.1% sodium azide) in a 4 mL glass vial. The vials were incubated at 37° C. and sampled at various time points. At each time point, 2 mL of release medium was removed and replaced with 2 mL of fresh release medium. The collected samples were analyzed for peptide concentration and integrity by HPLC using an YMC-Pack ODS-120A column. Triplicate samples were used for each formulation.

Compound	leuprolide released
leuprolide oleate [LA-OL]	More than 80%
CCNC(=O)[C@@H]1CCCN1C(=O)[C@H](CCCNC(=N)N)NC(=O)[C@H](CC(C)C)NC(=O)[C@@H](CC(C)C)NC(=O)[C@H](Cc1ccc(O)cc1)NC(=O)[C@H](CO)NC(=O)[C@H](Cc1c[nH]c2ccccc12)NC(=O)[C@H](Cc1c[nH]cn1)NC(=O)[C@@H]1CCC(=O)N1 [LA-Ac, leuprolide acetate, reference compound]	More than 80%
leuprolide docusate [LA-DSS]	Less than 10%
leuprolide dodecyl sulfate [LA-SDS]	Less than 10%
